# “And” between values parts separate entries of the source, which are not always exact repeats. Equal entries are not always repeated. The list shows a part of the results. Shown are side measurements of this screen, not its main read-out; they come without a call. Compounds called inactive in the main read-out are mostly missing here. Words in brackets tell the shape of the fitted curve; partial curves, single points and poor fits give uncertain potencies.
# Assay: Cell signaling CRE-BLA (Fsk stim)
# Conditions: CHO CRE-bla reporter (cAMP response element driving beta-lactamase), forskolin EC10, beta-lactamase ratio; measured here: 460 nm blue channel
# Method in brief: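 Modulation of forskolin signalling: compounds in titration series added with EC10 NKH 477 to CHO cells carrying a CRE-driven beta-lactamase reporter, 3 h, 37C. CCF4 FRET ratio (460/530 nm, ex 405 nm) gives %activity and AC50.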
row,Compound,AC50
1,O=C(Cn1cnc2sc3c(c2c1=O)CCCC3)NCCC(=O)N1CCC2(CC1)OCCO2,"25.1 µM [falling, single point]"
2,CCCCCn1c(N)c(C(=O)NCCN2CCOCC2)c2nc3ccccc3nc21,"12.6 µM [rising, partial curve]"
3,C=CCn1c(O)c(C(CC)=Nc2ccccc2NC(C)=O)c(=O)[nH]c1=O,"10 µM [falling, single point]"
4,CCC(C)N1C(=O)NC(=O)C2(Cc3c(ccc4ccccc34)N(C)C2)C1=O (stereo unspecified),"7.94 µM [falling, partial curve]"
5,Cc1cc(S(=O)(=O)NC(C)C)ccc1OCC(=O)N1CCN(Cc2ccc3c(c2)OCO3)CC1,"0.00398 µM [falling, full curve, poor fit]"
6,CC(=NC1CCN(Cc2ccccc2)CC1)c1c(O)n(C)c(=O)n(C)c1=O,"15.8 µM [rising, single point]"
7,COC(=O)[C@@H]1c2cc3c(c(O)c2[C@@H](O)C[C@]1(C)O)C(=O)c1c(O)cc2c(c1C3=O)O[C@H]1O[C@@]2(C)[C@@H](O)[C@H](N(C)C)[C@H]1O,"5.01 µM [falling, single point]"
8,CCn1nc(-c2cccs2)nc2c(=O)n(C)c(=O)nc1-2,"2 µM [falling, full curve]"
9,CCN1C[C@@]2(C)CC[C@H](O)[C@@]34[C@@H]5C[C@H]6[C@H](O)[C@@H]5[C@](O)(C[C@@H]6OC)[C@H](C[C@@H]23)[C@H]14,"12.6 µM [falling, partial curve, poor fit]"
10,CC(=NCc1ccco1)c1c(O)n(Cc2ccccc2)c(=O)[nH]c1=O,"12.6 µM [rising, single point]"
11,COc1ccc(CCNCc2ccccn2)cc1OC,"0.00398 µM [falling, full curve, poor fit]"
12,COc1ccc(CCn2c(O)c(C=NCc3ccc4c(c3)OCO4)c(=O)[nH]c2=O)cc1OC,"25.1 µM [rising, single point]"
13,COc1ccc(C[C@H]2c3cc(OC)c(OC)cc3CCN2C)cc1OC,"12.6 µM [falling, single point]"
14,O=C(Cn1cc(C(=O)c2ccccc2F)c2ccccc21)NCc1ccco1,"25.1 µM [rising, single point]"
15,C=CCn1c(O)c(C(C)=NCc2cc(OC)cc(OC)c2)c(=O)[nH]c1=O,"10 µM [rising, partial curve]"
16,NCCc1c[nH]c2ccc(OC(=O)C(=O)O)cc12,"0.000794 µM [falling, full curve]"
17,O=c1[nH]c(=O)n(Cc2ccccc2)c(O)c1C=NCCCn1ccnc1,"0.794 µM [falling, full curve]"
18,O=c1cccc2n1CC1CC2CN(c2ncnc3c2cnn3-c2ccccc2)C1 (stereo unspecified),"3.98 µM [rising, partial curve]"
19,Nc1c(C(=O)OCC2CCCO2)c2nc3ccccc3nc2n1Cc1cccs1 (stereo unspecified),"0.501 µM [rising, single point]"
20,C[N+]1(C)[C@@H]2CC[C@H]1CC(OC(=O)c1c[nH]c3ccccc13)C2 (stereo partly specified),"25.1 µM [falling, partial curve]"
21,Cn1c(=O)cc(OCC(=O)N2CCN(Cc3ccc4c(c3)OCO4)CC2)c2ccccc21,"10 µM [rising, partial curve]"

row,Compound,AC50
1,O=C(CCCN1CCC2(CC1)C(=O)N(CCc1ccc(N=C=S)cc1)CN2c1ccccc1)c1ccc(F)cc1,"5.01 µM [rising, full curve]"
2,CC1=C(O)C(=O)[C@H]2O[C@@H]2C1=O,"3.16 µM [falling, full curve]"
3,COc1ccc2[nH]cc(C3=CCNCC3)c2c1,"6.31 µM [falling, partial curve]"
4,C(=C/c1ccccc1)/CN1CCN(CCOC(c2ccccc2)c2ccccc2)CC1,"25.1 µM [falling, partial curve]"
5,Fc1ccc2c(c1)nnn2C1CCN(Cc2nnnn2CCc2ccccc2)CC1,"10 µM [rising, single point]"
6,C=CCn1c(O)c(C(CC)=Nc2cc(OC)ccc2OC)c(=O)[nH]c1=O,"10 µM [rising, partial curve]"
7,CCNC(=O)[C@@H]1O[C@@H](n2cnc3c(N)ncnc32)[C@H](O)[C@H]1O,"31.6 µM [falling, single point]"
8,O=C(O)[C@H]1[C@H](C(=O)O)[C@H]2CC[C@@H]1O2,"25.1 µM [rising, single point]"
9,Clc1cccc(SC2CCNCC2)n1,"20 µM [falling, partial curve, poor fit]"
10,O=C(CSc1ccccc1)N1CCC2(CC1)OCCO2,"12.6 µM [rising, single point]"
11,O=c1ccc2[nH]cc(C3=CCNCC3)c2[nH]1,"50.1 µM [falling, partial curve, poor fit]"
12,Cc1cc(Cl)ccc1OC(C)C(=O)O (stereo unspecified),"0.0794 µM [falling, partial curve, poor fit]"
13,O=c1[nH]c2ccccc2n1C1CCN(CCCC(c2ccc(F)cc2)c2ccc(F)cc2)CC1,"10 µM [falling, full curve, poor fit] and 10 µM [falling, partial curve]"
14,CC(=O)[O][Hg][c]1ccccc1,"3.98 µM [falling, full curve]"
15,Clc1ccc(C(c2ccccc2Cl)C(Cl)(Cl)Cl)cc1 (stereo unspecified),"31.6 µM [falling, single point]"
16,Cc1ccccc1NC1=NCC(C)S1 (stereo unspecified),"0.794 µM [rising, full curve]"
17,CCn1c(C(=O)N2CCC(C(=O)N3CCC4(CC3)OCCO4)CC2)cc2sccc21,"0.631 µM [rising, single point]"
18,CCCCOc1ccc(CC2C(=O)N(C)C(=O)N(C)C2=O)cc1,"0.316 µM [rising, partial curve]"
19,CC1(C)N=C(N)N=C(N)N1c1cccc(C(=O)Nc2ccc(S(=O)(=O)F)cc2)c1,"3.98 µM [rising, single point]"
20,CCCCCCCCn1sccc1=O,"7.94 µM [falling, partial curve]"

# Three successive entries out of the list so far, for reference:
row,Compound,AC50
21,Cn1c(=O)cc(OCC(=O)N2CCN(Cc3ccc4c(c3)OCO4)CC2)c2ccccc21,"10 µM [rising, partial curve]"
1,O=C(CCCN1CCC2(CC1)C(=O)N(CCc1ccc(N=C=S)cc1)CN2c1ccccc1)c1ccc(F)cc1,"5.01 µM [rising, full curve]"
2,CC1=C(O)C(=O)[C@H]2O[C@@H]2C1=O,"3.16 µM [falling, full curve]"

# Reference: PubChem BioAssay AID662 (National Center for Advancing Translational Sciences (NCATS), 2007)
